Source: PubChem BioAssay AID1487 (National Center for Advancing Translational Sciences (NCATS), 2009)
Some of the results follow. Further columns of the screen follow, without active or inactive calls. Compounds called inactive in the main read-out are mostly missing here. The note in brackets gives the kind of curve behind each potency; many fits are weak.

Assay: qHTS Assay for Modulators of Lamin A Splicing
Details: HeLa LMNA splicing GFP/RFP minigene ratio, 48 h
Outline: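 S3 HeLa stable clones carrying a lamin A-EGFP splicing minigene plus DsRed2 were seeded at 600 cells/well in Opti-MEM with 2% FBS, pin-dosed and incubated 48 h at 37°C. Acumen cytometry (488 nm) gave the GFP/RFP total-intensity ratio.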

[1] = measured here: GFP splicing reporter channel
[2] = measured here: RFP viability control channel

Structure (SMILES)	AC50 [1]	AC50 [2]
Cc1ccccc1OCCCCn1cnc2ccccc21	2.24 µM [rising, full curve]	3.55 µM [rising, partial curve]
CCOc1ccccc1C(=O)NCc1ccc2c(c1)CCN2C(C)=O	–	1.58 µM [rising, partial curve]
Nc1ccccc1Nc1cc(-c2ccccc2)nn1-c1ccccc1	–	6.31 µM [rising, partial curve]
Cc1[nH][nH]c(=O)c1C=NCc1cccc(C(F)(F)F)c1	0.0126 µM [rising, partial curve, poor fit]	–
CN(C1=C(N2CCCCC2)C(=O)c2ccccc2C1=O)c1ccccc1	–	35.5 µM [rising, single point]
COc1ccc2c(c1)CCc1c(C(=O)NC3CCCCC3)noc1-2	–	20 µM [rising, single point]
Cc1ccc(S(=O)(=O)NCCCC(=O)O)cc1	0.00447 µM [rising, full curve, poor fit]	–
Cc1ccc(/C=N/Nc2cccc3cccnc23)c(O)c1	–	12.6 µM [rising, single point]
O=C(NCCc1ccc(Cl)cc1)c1ccc(CSCc2ccccc2Cl)o1	–	11.2 µM [rising, partial curve]
CC(C)CC(C(=O)Nc1ccccc1)N1C(=O)C2C3C=CC(C3)C2C1=O (stereo not given)	1.12 µM [falling, partial curve, poor fit]	3.55 µM [falling, partial curve]
CN=C1SC(CC(=O)Nc2sc3c(c2C#N)CCCC3)C(=O)N1C (stereo not given)	–	0.0891 µM [rising, full curve, poor fit]
Cc1cc(CNC(=O)CCc2nnc(CCCCc3ccccc3)o2)nn1C	0.0224 µM [rising, full curve, poor fit]	–
Cc1ccc(Nc2nnc(SC(C)C(=O)Nc3c(C)n(C)n(-c4ccccc4)c3=O)s2)cc1 (stereo not given)	–	12.6 µM [rising, partial curve]
CCN=C1S/C(=C\c2cn(CC)c3ccccc23)C(=O)N1CC	14.1 µM [rising, single point]	12.6 µM [rising, partial curve]
CCOC(=O)c1cnc(SC2CC(=O)N(c3ccccc3)C2=O)nc1N (stereo not given)	–	1.12 µM [falling, full curve, poor fit]
CCCCNS(=O)(=O)c1ccc2nc(SCC(=O)Nc3sccc3C#N)[nH]c2c1	–	15.8 µM [rising, partial curve, poor fit]
CCOC(=O)Cc1csc(NC(=O)c2ccc(Br)s2)n1	–	0.00355 µM [rising, full curve, poor fit]

Look-ups from the entries so far:
Entry of CN(C1=C(N2CCCCC2)C(=O)c2ccccc2C1=O)c1ccccc1 under AC50 [2]: 35.5 µM [rising, single point]
Entry of CCCCNS(=O)(=O)c1ccc2nc(SCC(=O)Nc3sccc3C#N)[nH]c2c1 under AC50 [2]: 15.8 µM [rising, partial curve, poor fit]
